Measurements: PubChem BioAssay AID624297 (National Center for Advancing Translational Sciences (NCATS), 2012)
The whole screen tested about 340,000 compounds, of which about 6,200 (1.8%) were called active. Inconclusive results, whose numbers are uncertain, are shown with a selection of clear calls. Calls follow the shape of the dose curve; as a rule, active = well fitted activation curve with a large enough effect; inconclusive = small, poorly fitted or top-dose-only effect; inactive = no such curve, though single readings can be large or run the other way. Potencies beside an inconclusive call are fits to weak or partial responses and may not hold up.

Experiment: A quantitative high throughput screen for small molecules that induce DNA re-replication in SW480 colon adenocarcinoma cells. Also: nearly all actives have a fitted effect of over 55% in size. As to re-replication activation: % of control where 0% means no effect.
Conditions: Hoechst DNA content imaging, 48 h; re-replication activation: at 46.1 µM (top of the series) unless noted
How it was run: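 Cells (250 per well) received 23 nL compound or DMSO by pin tool and were kept 48 hr at 37 C, 5% CO2. Nuclei were then stained with Hoechst for 40 min and scanned for DNA content.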
Potency is read from the fitted curve at half-maximal effect.

Row | SMILES | Potency | re-replication activation
1 | CC1(C)CC(=O)C(C2(O)C(=O)N(Cc3ccccc3)c3ccccc32)CO1 (stereo not drawn) | inconclusive: 29.1 µM [activator, single point] | –
2 | Cc1ccc2nc(N/N=C/c3ccco3)cc(C)c2c1 | inconclusive: 29.1 µM [activator, single point] | –
3 | C=CCc1ccccc1OCC(O)CN1CCN(c2ccc(C)cc2)CC1 (stereo not drawn) | inactive | –
4 | CCOC(=O)c1nncc(-c2ccccc2)n1 | inconclusive: 1.84 µM [activator, partial curve, poor fit] | –
5 | O=C(O)C1CCN(S(=O)(=O)c2cccc3nonc23)CC1 | inactive | –
6 | O=C(Nc1cccc(O)c1)c1ccc(Br)c(S(=O)(=O)N2CCCCC2)c1 | inactive | –
7 | CCc1ccc2[nH]c(C(=O)Nc3ccc4c(c3)OCO4)cc2c1 | inconclusive: 1.84 µM [activator, full curve, poor fit] | –
8 | Oc1[nH]c(=S)sc1C=C1N=c2ccccc2=N1 | inconclusive: 6.51 µM [activator, single point] | –
9 | CN(C)CCCN(C(=O)c1ccc(S(=O)(=O)N2CCc3ccccc3C2)cc1)c1nc2c(F)cc(F)cc2s1 | active: 3.66 µM | –
10 | Cc1cccc(NC(=O)C2SC(=Nc3c(C)cccc3C)C(C(=O)N3CCOCC3)=C2N)c1 (stereo not drawn) | inconclusive: 23.1 µM [activator, single point] | –
11 | COc1ccccc1/C=N/NC(=O)CSc1ccc2ccccc2n1 | inconclusive: 29.1 µM [activator, single point] | –
12 | Cc1ccc(/C=N/NC(=O)CCCOc2ccc(Cl)cc2Cl)cc1[N+](=O)[O-] | inactive | –
13 | COc1ccc(-c2nc(Cn3c(SCc4ccc(F)cc4)nc4ccncc43)c(C)o2)cc1OC | inactive | –
14 | O=C(NC(=C(Cl)Cl)S(=O)(=O)c1ccc(Cl)cc1)c1ccccc1 | inconclusive: 20.6 µM [activator, single point] | –
15 | O=C(c1ccccc1)c1ccc2c(c1)OCCOCCOCCO2 | inconclusive: 3.66 µM [activator, full curve, poor fit] | –
16 | CCc1nc(CN2CCCC(C(=O)c3ccc4c5c(cccc35)CC4)C2)c(C)[nH]1 (stereo not drawn) | inconclusive: 29.1 µM [activator, single point] | –
17 | N#CC1=C(N)Oc2c(ccc3cccnc23)C1c1ccncc1 (stereo not drawn) | inconclusive: 6.51 µM [activator, partial curve, poor fit] | –
18 | Cc1cccnc1NC(=O)CCC(=O)c1cccs1 | inactive | –
19 | COc1cc(/C=C(\C#N)c2nc3ccc(C)cc3[nH]2)cc([N+](=O)[O-])c1O | inconclusive: 29.1 µM [activator, single point] | –
20 | O=C(CCCn1c(=S)[nH]c2cc3c(cc2c1=O)OCO3)N1CCN(c2ccc(Cl)cc2)CC1 | inactive | –
21 | CCNc1nc(Nc2ccc(C)c(Cl)c2)c2cnn(C)c2n1 | inconclusive: 29.1 µM [activator, single point] | –
22 | CCOc1ccc(S(=O)(=O)N(C)c2ccc(OCC(=O)NC3=NCCS3)cc2)cc1 | inconclusive: 0.231 µM [activator, single point] | –
23 | O=C1C=C(/C=C/C2C=CC=CC2)C[C@@H](c2ccc(Cl)cc2)C1 (stereo partly drawn) | inconclusive: 14.6 µM [activator, single point] | –

Row | SMILES | Potency | re-replication activation
24 | CC(=O)NC(c1ccc(Cl)cc1Cl)c1ccc2cccnc2c1O (stereo not drawn) | inactive | –
25 | CCC1CCCCN1C(=S)NC(=O)c1ccc([N+](=O)[O-])cc1 (stereo not drawn) | inconclusive: 29.1 µM [activator, single point] | –
26 | O=C(COC(=O)/C=C/c1cccc(C(F)(F)F)c1)NC(=O)NCc1ccco1 | inactive | –
27 | CCn1c(SCC(=O)Nc2ccc(NC(C)=O)cc2)nc2c([nH]c3ccccc32)c1=O | inconclusive: 1.46 µM [activator, partial curve] | –
28 | NC(=O)c1cc([N+](=O)[O-])ccc1NCC1CCCCC1 | inactive | –
29 | Cc1ccc(CSc2sc(C(=O)c3ccccc3)c(N)c2C#N)cc1 | inactive | –
30 | COC(=O)/C(=C\Nc1ccc(Cl)cc1Cl)NC(=O)c1ccc(OC)cc1 | active: 6.51 µM | –
31 | O=[N+]([O-])c1ccc(Cl)cc1N1CCCCC1 | inconclusive: 0.291 µM [activator, partial curve, poor fit] | –
32 | O=C(Nc1ccc(Cl)cc1)Nc1ccon1 | inconclusive: 16.4 µM [activator, single point] | –
33 | Cc1ccc2c(CSc3nnnn3C)cc(=O)oc2c1 | inactive | –
34 | CCCCN(CC)CCNC(=O)c1cc2c(-c3ccc(Cl)cc3)nn(C)c2s1 | inconclusive: 18.4 µM [activator, single point] | –
35 | CCCCNC(=S)NNC(=O)C1=NN(c2cc(C)ccc2C)C(=O)CC1 | inconclusive: 29.1 µM [activator, single point] | –
36 | CCN(CC)CCN(Cc1cc2cc3c(cc2[nH]c1=O)OCCO3)C(=O)NC1CCCCC1 | – | inactive: 1.01% [at 9.22 µM]
37 | OCCC1CN(Cc2nc3c(s2)CCCC3)CCN1Cc1ccccc1 (stereo not drawn) | inconclusive: 29.1 µM [activator, single point] | –
38 | CCCNC(=S)Nc1ccc(F)cc1F | inactive | –
39 | Cc1nn(Cc2ccccc2)c(C)c1/C=N/NC(=O)c1ccncc1 | inconclusive: 9.2 µM [activator, partial curve, poor fit] | –
40 | Cc1nc2cc(N3CCCCC3)c(NC(=O)c3ccncc3)cc2c(=O)n1Cc1ccccc1 | inconclusive: 20.6 µM [activator, partial curve, poor fit] | –
41 | O=C(Cc1cccs1)Nc1cccc(-c2nc3cc4ccccc4cc3[nH]2)c1 | inactive | –
42 | CCN(Cc1ccc2c(c1)OCCO2)C(=O)CSc1nc(C)nc2sc(C)c(C)c12 | inactive | –
43 | CCOC(=O)C1=C(N)n2c(s/c(=C\c3cccs3)c2=O)=C(C(=O)OCC)C1c1cccs1 (stereo not drawn) | inconclusive: 10.3 µM [activator, single point] | –
44 | COc1ccccc1NC(=O)Cn1nnc(-c2ccccc2NS(=O)(=O)c2ccccc2)n1 | inconclusive: 16.4 µM [activator, single point] | –
45 | Nc1nc(SCC(=O)Nc2ccc(OC(F)(F)F)cc2)[nH]c(=O)c1NC(=O)c1ccc(Br)o1 | inconclusive: 29.1 µM [activator, single point] | –
46 | CCOC(=O)c1cc2occc2n1CC(=O)N1CCCc2ccccc21 | inactive | –

Row | SMILES | Potency | re-replication activation
47 | O=C(NS(=O)(=O)c1ccccc1)c1cccc(Br)c1 | inconclusive: 0.092 µM [activator, full curve, poor fit] | –
48 | O=C(Nc1ccc(CN2CCOCC2)cc1)c1ccc(-c2cc(Cl)ccc2Cl)o1 | inconclusive: 18.4 µM [activator, partial curve, poor fit] | –
49 | O=C(Nc1ccc(OC(F)F)cc1)Nc1cccc(C(F)(F)F)c1 | inconclusive: 32.6 µM [activator, partial curve, poor fit] | –
50 | CC(C)c1cccc(C(C)C)c1OC(=O)[C@H]1OC(C(C)(C)C)=C[C@@H]1c1ccccc1 | inconclusive: 6.51 µM [activator, single point] | –
51 | COc1ccc(-c2cc(C(F)(F)F)n3nc(C(=O)NCc4ccco4)c(Cl)c3n2)cc1 | inconclusive: 20.6 µM [activator, single point] | –
52 | CCOC(=O)C1(Cc2cccc(OC)c2)CCN(Cc2cccn2-c2nccs2)CC1 | inconclusive: 29.1 µM [activator, single point] | –
53 | CC(C)OCCCNC(=O)Cn1nc(-c2ccccc2)ccc1=O | inconclusive: 0.103 µM [activator, full curve, poor fit] | –
54 | Cc1ccccc1CNC(=O)Cc1ccccc1[N+](=O)[O-] | inconclusive: 8.2 µM [activator, partial curve, poor fit] | –
55 | CC(=O)Oc1c(S(=O)(=O)c2ccc(C)cc2)c(C)nn1C(C)(C)C | inconclusive: 6.51 µM [activator, single point] | –
56 | CSCCC(NC(=O)C1CCCCC1)c1nc2ccccc2[nH]1 (stereo not drawn) | inconclusive: 0.58 µM [activator, partial curve, poor fit] | –
57 | COc1ccc(NC(=O)CCC(=O)Nc2ccc3nc(N4CCOCC4)cc(C)c3c2)c(OC)c1 | inactive | –
58 | COCCCn1c(C)cc(C(=O)COC(=O)C23CC4CC(CC(O)(C4)C2)C3)c1C | inactive | –
59 | CCn1c(SCC(=O)Nc2ccc3c(c2)oc2ccccc23)nnc1-c1ccc(N)cc1 | inconclusive: 20.6 µM [activator, partial curve, poor fit] | –
60 | Cc1ccc(-c2nn(-c3ccccc3)cc2/C=N/O)cc1 | inconclusive: 29.1 µM [activator, single point] | –
61 | COc1ccccc1C(=O)NNC(=S)NC(=O)c1cc(OC)c(OC)c(OC)c1 | inconclusive: 29.1 µM [activator, single point] | –
62 | COc1ccc(CCNC(=O)Cn2cnc3c(nnn3Cc3ccccc3F)c2=O)cc1OC | inactive | –
63 | O=C(N/N=C/c1ccc(O)cc1O)C(=O)N/N=C/c1ccc(O)cc1O | active: 11.6 µM | –
64 | COc1cc(/C=C2\SC(c3ccc(C)cc3)=NC2=O)ccc1O | inactive | –
65 | COc1ccccc1Cn1c(=S)[nH]c2cc(C(=O)NCCCN3CCOCC3)ccc2c1=O | inconclusive: 23.1 µM [activator, single point] | –
66 | CC/C(=N\NC(=O)c1ccc2c(c1)OCO2)c1ccccc1 | inconclusive: 20.6 µM [activator, single point] | –
67 | CCOC(=O)CCCCC(=O)c1[nH]c(=O)[nH]c1CSc1nc(-c2ccccc2)c(C#N)c(=O)[nH]1 | inconclusive: 29.1 µM [activator, single point] | –
68 | OCCNC(=S)NCCc1ccccc1 | inconclusive: 25.9 µM [activator, single point] | –

Given in CSV form: part of the list above.
Row,SMILES,Potency,re-replication activation
32,O=C(Nc1ccc(Cl)cc1)Nc1ccon1,"inconclusive: 16.4 µM [activator, single point]",–
65,COc1ccccc1Cn1c(=S)[nH]c2cc(C(=O)NCCCN3CCOCC3)ccc2c1=O,"inconclusive: 23.1 µM [activator, single point]",–
66,CC/C(=N\NC(=O)c1ccc2c(c1)OCO2)c1ccccc1,"inconclusive: 20.6 µM [activator, single point]",–
